Results from PubChem BioAssay AID1487 (National Center for Advancing Translational Sciences (NCATS), 2009).
Some of the results follow. The main result of the screen is listed elsewhere. These columns were measured beside it and carry no call. The list favours compounds with an active or inconclusive main result. The note in brackets gives the kind of curve behind each potency; many fits are weak.

Assay: qHTS Assay for Modulators of Lamin A Splicing
Settings: HeLa LMNA splicing GFP/RFP minigene ratio, 48 h
Outline: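 S3 HeLa cells stably expressing lamin A-EGFP splicing minigene plus DsRed2, 600 cells/well, 48 h compound exposure at 37C. Laser-scanning cytometry; analysed as GFP (500-530 nm)/RFP (575-640 nm) total intensity ratio; 0.5% DMSO vehicle.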

[1] = measured here: RFP viability control channel
[2] = measured here: GFP splicing reporter channel

| SMILES | AC50 [1] | AC50 [2] |
| --- | --- | --- |
| COc1ccc(C2(CNC(=O)c3cccc([N+](=O)[O-])c3)CCCCC2)cc1OC | 35.5 µM [rising, single point] |  |
| Cn1c(-c2ccccc2)cnc1SCC(N)=O | 2.82 µM [rising, partial curve] |  |
| COc1ccc(CN(C(=O)c2nsc(Cl)c2Cl)C(C(=O)NC2CCCC2)c2ccc(OC)cc2)cc1 (configuration not stated) | 12.6 µM [rising, partial curve] |  |
| COc1ccc(N2CC(NC(=O)c3ccco3)CC2=O)cc1 (configuration not stated) | 0.794 µM [falling, full curve, poor fit] | 35.5 µM [falling, partial curve, poor fit] |
| O=c1onc2n1-c1cc(Br)ccc1OC2 | 0.000891 µM [falling, full curve, poor fit] |  |
| COc1ccccc1NC(=O)C1CCN(C(=O)c2sc3nc[nH]c(=O)c3c2C)CC1 |  | 6.31 µM [rising, partial curve] |
| COc1ccc(C2=NCC(CSc3nnnn3C)S2)cc1 (configuration not stated) | 35.5 µM [falling, single point] |  |
| C=CCNC(=O)COC(=O)/C=C/c1cccs1 | 5.62 µM [rising, partial curve, poor fit] |  |
| COc1ccc(Nc2cc(C)c3ccccc3n2)cc1 | 0.00708 µM [falling, full curve, poor fit] | 0.00501 µM [falling, full curve, poor fit] |
| COc1cc(Cl)c(NS(=O)(=O)c2ccc(-c3cnc(C4CC4)o3)cc2)c(OC)c1 | 0.501 µM [rising, full curve] |  |
| O=C(CN1c2cccc3cccc(c23)S1(=O)=O)NCc1ccc2c(c1)OCO2 | 12.6 µM [rising, partial curve] |  |
| O=C(COc1ccc([N+](=O)[O-])cc1)Nc1ccc(N2CCCC2)cc1 | 0.178 µM [rising, full curve, poor fit] | 3.98 µM [rising, partial curve, poor fit] |
| COc1cc(OC)c(OC)cc1C#N |  | 1.12 µM [rising, full curve, poor fit] |
| Nn1c(Cc2cccc3ccccc23)nnc1SCCOc1ccc(Br)cc1 |  | 35.5 µM [falling, single point] |
| c1ccc(CN2CCN(C3=Nc4cccc5cccc3c45)CC2)cc1 | 14.1 µM [rising, single point] | 12.6 µM [rising, single point] |
| Cc1cc(N/N=C/c2ccc(Cl)cc2Cl)nc(NCc2ccccc2)n1 | 35.5 µM [falling, single point] | 15.8 µM [falling, single point] |
| Cc1ccc(/C(N)=N/OC(=O)c2cccc(Cn3cc(C(F)(F)F)ccc3=O)c2)cc1 | 12.6 µM [falling, partial curve, poor fit] | 12.6 µM [falling, partial curve, poor fit] |
| Cc1ccc(S(=O)(=O)Nc2cccc3cccnc23)cc1 | 17.8 µM [rising, single point] |  |
| CC(C)(C)NC(=O)[C@H]1CN(Cc2cccnc2)CCN1C[C@@H](O)C[C@@H](Cc1ccccc1)C(=O)N[C@H]1c2ccccc2C[C@H]1O | 14.1 µM [rising, single point] | 28.2 µM [rising, partial curve, poor fit] |
| COc1ccc(N/N=C(\C#N)C(=N)SCc2ccccc2)cc1 | 11.2 µM [falling, single point] | 2.24 µM [falling, full curve, poor fit] |
| COc1ccc(Nc2cnn(-c3nc4ccccc4s3)c(=O)c2Cl)cc1 | 15.8 µM [falling, single point] | 35.5 µM [falling, single point] |
| O=C(Cc1c[nH]c2ccccc12)N/N=C/c1ccc(F)cc1 | 1.12 µM [rising, partial curve] |  |
| Cc1cc(C)cc(-n2c(C)nc3cc(C(=O)NCc4ccc(F)cc4)ccc32)c1 |  | 22.4 µM [falling, single point] |
| CN(c1cccc(NC(=O)CN(c2ccc(Cl)c(Cl)c2)S(=O)(=O)c2ccccc2)c1)S(C)(=O)=O | 12.6 µM [rising, partial curve] | 14.1 µM [rising, single point] |
| c1ccc(-c2nc3nonc3nc2-c2ccccc2)cc1 | 35.5 µM [rising, single point] |  |
| O=C(c1ccncc1)N(c1ccc2oc3c(c2c1)CCCC3)S(=O)(=O)c1ccc(F)cc1 | 28.2 µM [rising, single point] | 17.8 µM [rising, single point] |
| Cc1cc(C)cc(NC(=O)c2cnn(-c3ccc(C)c(C)c3)c2C2CCNCC2)c1 | 31.6 µM [rising, single point] |  |
| CCOc1ccc(CCNC(=O)c2cn(-c3cccc(OC)c3)c(=O)c3ccccc23)cc1 |  | 2 µM [rising, partial curve] |

An excerpt of these results, field by field:
c1ccc(CN2CCN(C3=Nc4cccc5cccc3c45)CC2)cc1
  AC50 [1]: 14.1 µM [rising, single point]; AC50 [2]: 12.6 µM [rising, single point]
CN(c1cccc(NC(=O)CN(c2ccc(Cl)c(Cl)c2)S(=O)(=O)c2ccccc2)c1)S(C)(=O)=O
  AC50 [1]: 12.6 µM [rising, partial curve]; AC50 [2]: 14.1 µM [rising, single point]

The results go on:

| SMILES | AC50 [1] | AC50 [2] |
| --- | --- | --- |
| CCOC(=O)CCCNC(=O)COC(=O)/C=C/c1ccc2c(c1)OCO2 |  | 5.62 µM [rising, partial curve, poor fit] |
| Cn1nc(C(=O)NCc2ccc(F)cc2)c2ccccc2c1=O |  | 15.8 µM [rising, single point] |
| Cn1nc(-c2ccc(Cl)cc2)nc2c(=O)n(C)c(=O)nc1-2 | 3.55 µM [falling, full curve] | 2.82 µM [falling, full curve] |
| O=C(N/N=C/c1ccc([N+](=O)[O-])o1)c1ccc(O)cc1 | 35.5 µM [rising, single point] | 1 µM [falling, partial curve, poor fit] |
| CCN(C(=O)Cn1c(=O)nc(-c2ccccc2)c2cc(Cl)ccc21)c1cccc(C)c1 |  | 25.1 µM [falling, partial curve] |
| COc1ccc(N=C2SC(CC(=O)Nc3ccccc3F)C(=O)N2Cc2ccco2)cc1 (configuration not stated) | 22.4 µM [rising, partial curve] | 22.4 µM [rising, single point] |
| Cc1cc(C(=O)OC(C)C(=O)Nc2nc(-c3ccccc3)cs2)c(C)o1 (configuration not stated) | 12.6 µM [rising, partial curve] | 11.2 µM [rising, partial curve] |
| O=C(O)CSc1c(O)c2ccccc2[nH]c1=O |  | 0.158 µM [rising, single point] |
| CCCCCOC(=O)NCC(O)c1ccccc1 (configuration not stated) | 6.31 µM [rising, single point] |  |
| COc1ccccc1-c1cc(-n2ccnc2)ncn1 | 17.8 µM [falling, single point] | 35.5 µM [falling, single point] |
| O=C(N/N=C/c1cc(Cl)ccc1O)c1ccc(Br)cc1 | 17.8 µM [rising, partial curve] |  |
| COc1ccccc1Oc1ccc(N/C=C2/CCCC2=O)cc1 | 0.0141 µM [falling, full curve, poor fit] |  |
| NS(=O)(=O)c1ccc(NC(=O)COC(=O)c2c3c(nc4ccccc24)/C(=C\c2ccc4c(c2)OCO4)CCC3)cc1 | 35.5 µM [falling, single point] | 5.62 µM [falling, single point] |
| C(=C\c1nnc2c3ccccc3ncn12)/c1ccccc1 | 15.8 µM [rising, partial curve] |  |
| CCCn1c(SCC(=O)Nc2cccc(Cl)c2Cl)n[nH]c1=O |  | 0.02 µM [rising, partial curve, poor fit] |
| Cn1cc(CN2CCC[C@H]2CO)c(-c2cccc(Cl)c2)n1 | 5.62 µM [rising, single point] |  |
| CCCC1(c2ccccc2)NC(=O)N(CC(=O)c2[nH]c(C)c(C(=O)OCC)c2C)C1=O (configuration not stated) | 35.5 µM [falling, single point] | 35.5 µM [falling, partial curve] |
| Cn1c(-c2c(N)n(C3CCCC3)c3nc4ccccc4nc23)nc2ccccc21 | 22.4 µM [rising, partial curve] | 14.1 µM [rising, partial curve] |
| CCc1oc2ccccc2c1C(=O)c1cc(I)c(O)c(I)c1 | 35.5 µM [rising, partial curve, poor fit] | 14.1 µM [rising, single point] |
| CCN1CCN(C(c2ccccc2F)c2c(O)cc(C)n(CCOC)c2=O)CC1 (configuration not stated) | 0.501 µM [rising, full curve, poor fit] | 0.282 µM [rising, partial curve, poor fit] |
| CCC(=O)N1CCc2cc(CNS(=O)(=O)c3ccc(Br)s3)ccc21 |  | 0.501 µM [rising, single point] |
| CCc1c(C)sc2c1CCN(C(=O)Nc1cc(C)ccc1OC)C2c1ccc(F)cc1 (configuration not stated) | 4.47 µM [rising, full curve, poor fit] |  |
| CC(C)(C)c1ccc(S(=O)(=O)N2CCCCC2C(=O)NCc2ccccn2)cc1 (configuration not stated) | 12.6 µM [rising, partial curve] |  |
| COc1ccc(/C=C2\CCc3ccccc3C2=O)cc1OC | 11.2 µM [rising, partial curve] | 2.82 µM [rising, full curve] |
| CCN(CC)S(=O)(=O)c1ccc(C(=O)NCc2ccc3[nH]c4c(c3c2)CCCC4)cc1 | 1.12 µM [rising, full curve] |  |
| Cc1ccc(C(C)C)cc2c(C)ccc1-2 | 35.5 µM [falling, single point] |  |
| CN(C)c1nc(N(C)C)n(C(=O)c2ccc(F)cc2)n1 | 0.0398 µM [rising, full curve, poor fit] |  |
